This is one part of the list.

Protein sequences, listed by entry. Tags and fused reporters are not part of them.
UniProt Q0JBA9, entry or part of it: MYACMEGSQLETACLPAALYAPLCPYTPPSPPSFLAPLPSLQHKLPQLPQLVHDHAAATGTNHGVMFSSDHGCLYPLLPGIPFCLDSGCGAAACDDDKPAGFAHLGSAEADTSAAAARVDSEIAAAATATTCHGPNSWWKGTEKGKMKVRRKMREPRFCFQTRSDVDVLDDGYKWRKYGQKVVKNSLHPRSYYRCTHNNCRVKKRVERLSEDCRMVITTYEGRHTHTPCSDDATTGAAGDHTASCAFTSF

The assay has as its target OsWRKY34 (Oryza sativa, UniProt Q0JBA9 1-250). Description: protein-binding microarray (RPBM); PBS, 2% BSA, 51.3 ng/ul salmon testes DNA, 50 uM zinc acetate, 200 nM TF, 25 C, 1 h; high values mean tight binding. The note with it: protein: recombinant; tags: N-terminal polyhistidine and DsRed monomer fusion (pET32a); label: CyDye5-dUTP incorporated in the synthesized complementary strand; 3' TTTTT single-stranded linker to array surface; dsDNA, one strand shown. The essentials: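 Polyhistidine-tagged DsRed fusions of transcription factors, joined at the N-terminus, were expressed in E. coli BL21-CodonPlus and isolated on Ni–NTA. They were incubated at 200 nM for 1 h at 25 °C on a custom Agilent array, double-stranded and BSA-blocked, in PBS with 2% BSA, salmon testes DNA and 50 µM zinc acetate. The binding signal is per-feature fluorescence intensity (arbitrary units) read on an Axon 4000B scanner after washing.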
With “CAAGGAGGGAGTTGATGGTGGGATTGATCATGGGAGTTATCGGAGTCACCTAGTGCAG”, the binding signal is 8560 fluorescence intensity (a.u.). As for “CACTCCACTCCATCCGCGCTGCCTCCAAAACCCTCGACTCCGGAGTCACCTAGTGCAG”, the binding signal was 9480 fluorescence intensity (a.u.). The same measure for “TTCTGAAATCCTTTCTACAGTTGGCGTATCCACTGAGTTTCGGAGTCACCTAGTGCAG”: 10000 fluorescence intensity (a.u.). Take “TTCCCAATATTTGACTTAAACATTGTCCTAAACGACTTTCCGGAGTCACCTAGTGCAG”: the binding signal is 8670 fluorescence intensity (a.u.). In the case of “TTGTGTGTGGTGTGTTGTTTTGAGGTGCAATCATTCGAACCGGAGTCACCTAGTGCAG” it was 10000 fluorescence intensity (a.u.). The same measure for “GCTTTGTTTGGGTTTATCTTCTGCTGAAATTCTCTCCTCACGGAGTCACCTAGTGCAG”: 9480 fluorescence intensity (a.u.); for “TATTATTTGTCTCTACCTCTTCTCTCATTATAATACTATTCGGAGTCACCTAGTGCAG”: 8830 fluorescence intensity (a.u.).

For the sequence “GATAATATCCGCTCTGTTTTCACCCCTACTGGTATTTACTCGGAGTCACCTAGTGCAG”, the binding signal is 13100 fluorescence intensity (a.u.). “ATAGTTATTGGCAGTGTGTATTATAGCAGTTCATCTGTTACGGAGTCACCTAGTGCAG”: the binding signal was 8220 fluorescence intensity (a.u.). In the case of “TATGATTTTTTCTAGATTTTTTGGTGACATTTTTTAGTTACGGAGTCACCTAGTGCAG” it was 8150 fluorescence intensity (a.u.). The same measure for “AGACGAGACCACCCTCCAGCGCGTTGGACATGCCTATATCCGGAGTCACCTAGTGCAG”: 8470 fluorescence intensity (a.u.); for “TTGACACATGGACCCGTAAGCTGGTAGCCCATACCGGTCTCGGAGTCACCTAGTGCAG”: 13200 fluorescence intensity (a.u.).

For the sequence “TTGCCCTGTTCTTGGCGCTCGATTTGTTGGTATCTCGGTGCGGAGTCACCTAGTGCAG”, the binding signal is 8630 fluorescence intensity (a.u.). Consider “TATTTTTTGGTTTCTGTGTCCAACGTTTAACCATCTGTCTCGGAGTCACCTAGTGCAG”, for which the binding signal was 8450 fluorescence intensity (a.u.).

For the sequence “CCGTGAAGGCCTCTCTTTCCCGCGACCACCACCTCACTCTCGGAGTCACCTAGTGCAG”, the binding signal was 11500 fluorescence intensity (a.u.). In the case of “CGGTTCCGCTCTCGCCGGAGCGAGGGGTGGGTGGAGGATGCGGAGTCACCTAGTGCAG” it was 9370 fluorescence intensity (a.u.).

As for “TTGGTAGAGTATCTTGATGGGAATTAGTATGTTCATTTTTCGGAGTCACCTAGTGCAG”, the binding signal is 9600 fluorescence intensity (a.u.).

For the sequence “GGCAATCCGGTGCTCCTTGTCTGAACTCTCTCAATCTCAACGGAGTCACCTAGTGCAG”, the binding signal was 8040 fluorescence intensity (a.u.). In the case of “GCACCCGGCGCGCCTCTCGCTCGTCACCTCCCGCCGCCGCCGGAGTCACCTAGTGCAG” it was 8540 fluorescence intensity (a.u.). Consider “TCATCTTTGGTTCTCTCGCCATCTTTCATAGCATGCATCCCGGAGTCACCTAGTGCAG”, for which the binding signal was 10500 fluorescence intensity (a.u.). For “CCTCTTTAAATCTTAACCATTCATTCTCCCTCATCCATTTCGGAGTCACCTAGTGCAG”, the binding signal is 8810 fluorescence intensity (a.u.). In the case of “TAGTGTCGCGTCACACTGTCTGCTGTTCGTCGCGCTCTAACGGAGTCACCTAGTGCAG” it was 9770 fluorescence intensity (a.u.).

As for “GGCCCTTGTCGATTGATCCCCATGCTGTATATGATGATGACGGAGTCACCTAGTGCAG”, the binding signal was 9970 fluorescence intensity (a.u.). Consider “CGTCTCCGACCAGCTCATGTCGTCTCCGGCGGCGTCCGCCCGGAGTCACCTAGTGCAG”, for which the binding signal is 11700 fluorescence intensity (a.u.).

Consider “TTCCTACTTGTTGTATACATTAATACTTCTATTCTAGTCTCGGAGTCACCTAGTGCAG”, for which the binding signal is 9270 fluorescence intensity (a.u.). With “GGTTTATATGTCCGACGCTTGATCGTCCATTCTATTTTAACGGAGTCACCTAGTGCAG”, the binding signal is 8950 fluorescence intensity (a.u.). The same measure for “CGCACCTAAAACTTCCTATATATTTATTGTCGTATTCAAACGGAGTCACCTAGTGCAG”: 9330 fluorescence intensity (a.u.); for “AGAGAGTAGGGGTAGGTAATTTCATTATTTTTTTTGAAACCGGAGTCACCTAGTGCAG”: 8630 fluorescence intensity (a.u.). The same measure for “CCCTTTTTTAAATATATGTTGCTGTTGTTTTTTTAACAAACGGAGTCACCTAGTGCAG”: 8880 fluorescence intensity (a.u.); for “TTACCGTTACACCAACTTTGAATGCCTCCATCTGACGACGCGGAGTCACCTAGTGCAG”: 10100 fluorescence intensity (a.u.).

“CAAGCGTTTAAGGCTCTCGCCGAGCAGTCCATCTCCCACTCGGAGTCACCTAGTGCAG”: the binding signal is 8150 fluorescence intensity (a.u.). The same measure for “CCCCGACCCGCCGGCGCCGCCCACTCCCGTCTCGTCTCAACGGAGTCACCTAGTGCAG”: 14600 fluorescence intensity (a.u.); for “GGGGTTGTGGAATGGGGAATGCGACCTACCTTGCGCTTCCCGGAGTCACCTAGTGCAG”: 12600 fluorescence intensity (a.u.); for “GCGTGGTGTGGTTGTATTTTCTTTTTCCTGACTGCAGTCTCGGAGTCACCTAGTGCAG”: 12200 fluorescence intensity (a.u.). In the case of “GCGGCACGGCTTCCACATTTTTCGGCCAAATATTATATCCCGGAGTCACCTAGTGCAG”, the binding signal was 9380 fluorescence intensity (a.u.). With “GGGTTGGCTTGGTTTGGGGAGCAAGATGATACGGGAGGAACGGAGTCACCTAGTGCAG”, the binding signal is 13900 fluorescence intensity (a.u.). In the case of “ACGCAAACGCTTCCCACCCTCCACTCCTTCGCGTCGATCTCGGAGTCACCTAGTGCAG” it was 8940 fluorescence intensity (a.u.); in that of “GTCCCTTCCCGCGCTTTCCCCACCGCTCGAATACAGCACACGGAGTCACCTAGTGCAG”, 8150 fluorescence intensity (a.u.); in that of “TCTCTGAACATCATGCAAAATTCCTGTGATCCTCTGTACACGGAGTCACCTAGTGCAG”, 8070 fluorescence intensity (a.u.). The same measure for “CCGCTGCTTCTTTCCCCGCTAGTCTTCGCCAGCTAGCGTCCGGAGTCACCTAGTGCAG”: 10400 fluorescence intensity (a.u.); for “ACAATAATGCCAATATCTTTAACGTTCACTTCGTCACCAACGGAGTCACCTAGTGCAG”: 8300 fluorescence intensity (a.u.); for “GCTTATGAACCCCGTGGGCCATGGCCCTTATATATTCCTACGGAGTCACCTAGTGCAG”: 8860 fluorescence intensity (a.u.).

These data come from publication PMC7819943, “Rice protein-binding microarrays: a tool to detect cis-acting elements near promoter regions in rice”.
